Results as given in PMC3162491.
Results are given in words; binding and its absence hold for the method and conditions named. Binding calls can cover weak binding; strength is not graded here.

Target: cut-vertex two component signaling system Hik21, AP07430015 (Spirulina platensis strain C1)
Test: two-hybrid; bait plasmid in Y2HGold mated with prey plasmid in Y187 (strains also switched), 2XYPDA, 30°C, 24 hr; plated on DDO and DDO/X/A, blue colonies streaked onto high stringency QDO/X/A, 30°C

B1: Uroporphyrinogen decarboxylase (UroD or HemE), AP06900013 (enzyme, UniProt A0ABX3XNX7 1-388)
chain: MRASPIRRRPRAHAEISATCPDRRARRRAKIWGVSANLSPAGQQQTGTEHSAFLKACRREPVPHTPVWFMRQAGRSLPEYRKVREGIAMLDSCMRPELVTEITLQPVRRHNVDAAIYFSDIVVPLKAIGIDLDIKPGIGPVVENPIRTRADLEQLRPLEAGDVPYVTEAIGMLVRELGGTPLIGFAGAPFTLASYLVEGGPSRNHERTKALMYGDPQLWADLLDRLADITATFLQVQIAAGASAVQLFDSWVGALSPADYRRSVMPASAKVFRAVEGLGVPRIHFGVGTGELLGLLGEAGADVVGVDWRVPLDEAARRVGPGKALQGNIDPAVLFAPREAVETKAREVLDAAAGLEGHIFNLGHGVLPTTDPDALTRLVEYVHTQTAR
**Q.** For B1, which binding is on record?
**A.** Its binding is “binds”.
